## Screening data, single-dose tests

The chains behind the UniProt entries cited, without tags or fusion partners. Residues count along the entry.
UniProt P9WNZ1, whole entry: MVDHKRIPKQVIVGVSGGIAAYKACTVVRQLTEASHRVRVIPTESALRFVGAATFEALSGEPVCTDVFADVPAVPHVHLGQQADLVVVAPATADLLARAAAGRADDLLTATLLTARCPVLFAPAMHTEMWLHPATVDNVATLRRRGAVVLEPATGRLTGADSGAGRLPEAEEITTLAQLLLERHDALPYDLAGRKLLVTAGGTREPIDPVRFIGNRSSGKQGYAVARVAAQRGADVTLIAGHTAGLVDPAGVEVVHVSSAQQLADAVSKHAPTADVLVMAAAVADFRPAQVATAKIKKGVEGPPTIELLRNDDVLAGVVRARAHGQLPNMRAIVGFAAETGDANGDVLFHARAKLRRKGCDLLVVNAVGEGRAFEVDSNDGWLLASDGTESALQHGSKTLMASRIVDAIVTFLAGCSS
UniProt I6X8D2, whole entry: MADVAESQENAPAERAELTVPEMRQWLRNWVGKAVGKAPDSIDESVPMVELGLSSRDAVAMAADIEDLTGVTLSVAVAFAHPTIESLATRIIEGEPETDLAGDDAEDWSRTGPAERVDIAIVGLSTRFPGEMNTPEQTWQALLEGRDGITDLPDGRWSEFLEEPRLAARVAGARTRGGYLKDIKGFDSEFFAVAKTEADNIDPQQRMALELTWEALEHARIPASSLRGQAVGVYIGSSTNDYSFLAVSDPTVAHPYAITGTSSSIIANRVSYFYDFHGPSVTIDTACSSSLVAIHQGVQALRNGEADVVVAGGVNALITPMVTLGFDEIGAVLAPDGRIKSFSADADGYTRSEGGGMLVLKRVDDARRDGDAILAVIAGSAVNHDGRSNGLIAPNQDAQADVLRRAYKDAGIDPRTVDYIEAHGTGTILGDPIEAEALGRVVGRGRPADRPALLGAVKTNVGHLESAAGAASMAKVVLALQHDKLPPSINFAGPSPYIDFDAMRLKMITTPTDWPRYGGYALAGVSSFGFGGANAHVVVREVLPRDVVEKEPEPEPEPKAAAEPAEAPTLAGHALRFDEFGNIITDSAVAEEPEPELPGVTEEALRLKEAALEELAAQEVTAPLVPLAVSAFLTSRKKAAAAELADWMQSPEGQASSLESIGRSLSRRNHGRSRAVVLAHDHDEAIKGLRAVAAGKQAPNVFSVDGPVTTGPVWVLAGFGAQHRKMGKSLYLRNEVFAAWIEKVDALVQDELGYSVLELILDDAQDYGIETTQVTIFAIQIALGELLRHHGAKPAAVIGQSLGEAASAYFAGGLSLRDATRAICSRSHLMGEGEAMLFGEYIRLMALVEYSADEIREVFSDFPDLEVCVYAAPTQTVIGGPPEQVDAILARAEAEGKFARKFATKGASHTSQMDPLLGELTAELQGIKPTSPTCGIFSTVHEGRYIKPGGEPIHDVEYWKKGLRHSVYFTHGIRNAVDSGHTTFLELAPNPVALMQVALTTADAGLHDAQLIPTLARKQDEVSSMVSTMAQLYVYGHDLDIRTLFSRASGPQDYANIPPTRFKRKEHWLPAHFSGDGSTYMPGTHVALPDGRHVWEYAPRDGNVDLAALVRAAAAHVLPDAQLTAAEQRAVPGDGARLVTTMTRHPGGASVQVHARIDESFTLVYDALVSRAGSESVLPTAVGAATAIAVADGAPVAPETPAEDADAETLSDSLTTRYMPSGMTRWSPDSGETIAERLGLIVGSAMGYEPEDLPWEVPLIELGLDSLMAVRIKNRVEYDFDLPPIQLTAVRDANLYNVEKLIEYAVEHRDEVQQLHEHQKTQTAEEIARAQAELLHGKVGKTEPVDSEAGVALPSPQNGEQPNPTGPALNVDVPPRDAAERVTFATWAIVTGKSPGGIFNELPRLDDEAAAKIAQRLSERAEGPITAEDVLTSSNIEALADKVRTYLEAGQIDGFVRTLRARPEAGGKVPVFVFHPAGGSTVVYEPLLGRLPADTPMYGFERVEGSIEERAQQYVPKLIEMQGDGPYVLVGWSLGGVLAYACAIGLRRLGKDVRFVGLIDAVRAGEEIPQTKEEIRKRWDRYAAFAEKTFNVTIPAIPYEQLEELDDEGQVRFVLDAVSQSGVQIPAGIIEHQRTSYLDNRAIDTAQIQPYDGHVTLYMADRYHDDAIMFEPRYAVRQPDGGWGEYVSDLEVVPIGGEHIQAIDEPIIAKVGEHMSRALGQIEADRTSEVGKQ
UniProt P9WPC5, whole entry: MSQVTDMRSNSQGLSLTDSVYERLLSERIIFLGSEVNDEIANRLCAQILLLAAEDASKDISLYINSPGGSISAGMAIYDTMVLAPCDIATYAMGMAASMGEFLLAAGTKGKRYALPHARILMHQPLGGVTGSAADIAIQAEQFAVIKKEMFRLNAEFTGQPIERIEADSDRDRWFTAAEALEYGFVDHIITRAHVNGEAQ
UniProt P9WPC3, whole entry partner: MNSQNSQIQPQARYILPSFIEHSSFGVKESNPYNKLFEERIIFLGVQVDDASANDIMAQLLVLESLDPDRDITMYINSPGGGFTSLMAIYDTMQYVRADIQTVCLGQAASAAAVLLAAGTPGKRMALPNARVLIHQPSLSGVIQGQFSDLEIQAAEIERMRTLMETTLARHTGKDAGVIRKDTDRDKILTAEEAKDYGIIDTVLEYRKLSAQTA
UniProt Q4DA54, 1-478: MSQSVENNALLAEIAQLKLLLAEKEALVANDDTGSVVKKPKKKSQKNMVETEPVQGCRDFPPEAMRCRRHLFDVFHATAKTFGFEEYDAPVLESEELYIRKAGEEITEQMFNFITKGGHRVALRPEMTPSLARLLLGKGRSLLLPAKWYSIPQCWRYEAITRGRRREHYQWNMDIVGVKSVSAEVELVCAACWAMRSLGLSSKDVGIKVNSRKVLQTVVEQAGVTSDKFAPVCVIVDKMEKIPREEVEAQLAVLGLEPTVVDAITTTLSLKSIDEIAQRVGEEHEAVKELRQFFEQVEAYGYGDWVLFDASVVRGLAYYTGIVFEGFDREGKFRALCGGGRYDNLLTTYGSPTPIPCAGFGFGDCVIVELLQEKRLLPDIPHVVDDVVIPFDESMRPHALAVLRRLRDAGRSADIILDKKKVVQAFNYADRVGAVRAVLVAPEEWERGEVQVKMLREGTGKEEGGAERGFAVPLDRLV

Measurements from “University of Dundee, Small-Polar-MMV Screening Library” (2021), ChEMBL document CHEMBL3988442.

CoaBC: 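Enzyme assay of CoaBC with a phosphate dye (Biomol Green) read at 650 nm. Target: Coenzyme A biosynthesis protein CoaBC, Mycobacterium tuberculosis (UniProt P9WNZ1). Concentration: 30 µM. Direction is inferred from only a few compounds that gave an IC50; most scored high, so higher reads as stronger inhibition. Most strong results did not repeat in a second test. Size under these conditions: about 67,000 compounds, about 40 of them at 50% or above in at least one test.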
Leishmania in macrophages: 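Cell assay of Leishmania donovani living inside macrophages; the read-out is not stated. Concentration: 30 µM. The record gives no direction; compounds that gave an IC50 in retests scored well above the rest, so higher reads as stronger inhibition. About 69,000 compounds were tested under these conditions; 1.5% (about 1,000) showed 50% or more at least once.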
Pks13 thioesterase: 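Enzyme assay of the thioesterase domain of polyketide synthase 13; the read-out is not stated. Target: Polyketide synthase Pks13, Mycobacterium tuberculosis (UniProt I6X8D2). Tested at 30 µM. Higher reads as stronger inhibition (inferred from which compounds were picked for retests). Size under these conditions: about 67,000 compounds, about 300 of them at 50% or above in at least one test.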
ClpP1P2: 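Protease assay of ClpP1P2, read by the AMC dye that it sets free. Target: ClpP1P2, Mycobacterium tuberculosis (UniProt P9WPC5 and UniProt P9WPC3). Compounds at 50 µM. Direction is inferred from only a few compounds that gave an IC50; most scored high, so higher reads as stronger inhibition. Most other retested compounds had strongly negative values. About 69,000 compounds were tested under these conditions; 0.015% (about 10) showed 50% or more at least once.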
TcHisRS: 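Histidine-tRNA ligase, Trypanosoma cruzi CL Brener (UniProt Q4DA54). Enzyme assay of histidyl-tRNA synthetase; the read-out is not stated. Compounds at 30 µM. Higher reads as stronger inhibition (inferred: compounds with an IC50 in retests scored well above the rest). Of about 69,000 compounds tested this way, about 31 (0.045%) reached 50% or more in at least one test.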

Values are the deposited “Percent Effect”, in %.
The controls that fix the scale are not given in the record; negative values are as filed.
This is an unselected part of the compounds tested.
Two or more numbers in one place are separate tests of the same structure; such repeats can differ widely.
A dash means the value is not listed here; it may have been measured.

For O=C(O)C(F)(F)F.[H][C@@]12CCN(CCc3ccccc3)C[C@]1([H])[C@H](C(=O)NC1CC1)CCO2 the result was Leishmania in macrophages: -3.454%.
For O=C(C1CCC1)N1CCc2onc(Cn3cccn3)c2C1 the result was CoaBC: 2.521%; Leishmania in macrophages: -8.287%; Pks13 thioesterase: -7.315%; ClpP1P2: 2.479%; TcHisRS: -0.8264%.
For O=C(O)C(F)(F)F.[H][C@@]12CCN(C(=O)c3cscn3)[C@@]1([H])CCN2CC1CCOC1 (some centres unmarked) the result was Leishmania in macrophages: -2.253%.
For O=C(NCC1CCOC1)c1csc(-c2cccc(Cl)c2)n1 (centres unmarked) the result was CoaBC: -1.205%; Leishmania in macrophages: 20.74%; Pks13 thioesterase: 30.16%; ClpP1P2: 10.81%; TcHisRS: -12.98%.
For CCn1c(CN(C)C)nnc1C1CCN(Cc2cccc(OC)c2)CC1 the result was CoaBC: 7.727%; Leishmania in macrophages: 26.55%; Pks13 thioesterase: -5.378%; ClpP1P2: 2.789%; TcHisRS: 5.858%.
For Cc1nc(CN2CCCC2c2c(C)nn(C)c2Cl)no1 (centres unmarked) the result was CoaBC: 1.836%; Leishmania in macrophages: 17.3%; Pks13 thioesterase: 3.547%; ClpP1P2: 2.805%; TcHisRS: 5.303%.
For O=C1NC(C(=O)NCc2cccnc2Oc2ccc(F)c(F)c2)CO1 (centres unmarked) the result was CoaBC: 4.893%; Leishmania in macrophages: -63.89%; Pks13 thioesterase: -18.47%; ClpP1P2: -10.65%; TcHisRS: 7.463%.
For O=C(CCn1ccccc1=O)Nc1ccc(C(=O)O)cc1 the result was CoaBC: 4.835%; Leishmania in macrophages: 32.1% and 4.691%; Pks13 thioesterase: -5.924%; ClpP1P2: -7.046%; TcHisRS: 4.819%.
For O=C(O)C(F)(F)F.O=C1CC(c2ccncc2)C2(CCN(C(=O)NC3CC3)CC2)N1 (centres unmarked) the result was Leishmania in macrophages: 11.85% and -1.061%.
For Cn1cc(C2CC(=O)NC23CCN(Cc2cccc(F)c2)CC3)cn1 (centres unmarked) the result was CoaBC: 1.356%; Pks13 thioesterase: -23.78%; ClpP1P2: -3.821%; TcHisRS: 10.48%.
For CC(C)C(=O)N1CCCC(c2ncncc2-c2ccncc2)C1 (centres unmarked) the result was CoaBC: -9.326%; Leishmania in macrophages: 2.087%; Pks13 thioesterase: -12.23%; ClpP1P2: -4.112%; TcHisRS: 0.5464%.
For CCOCc1nc(N2CCOCC2)sc1C(=O)NCc1ccco1 the result was CoaBC: -5.402%; Leishmania in macrophages: -10.08%; Pks13 thioesterase: 1.001%; ClpP1P2: -13.26%; TcHisRS: 4%.
For COc1ccc(-c2ccnc3c2C(=O)CCC3)cc1 the result was CoaBC: -3.01%; Leishmania in macrophages: 4.121%; Pks13 thioesterase: -30.18%; ClpP1P2: 20.44%; TcHisRS: 2.151%.
For Cc1cc(-c2nc(-c3cccc(CN4CCOCC4)c3)no2)no1 the result was CoaBC: 3.178%; Leishmania in macrophages: 15.37%; Pks13 thioesterase: 16.14%; ClpP1P2: -1.259%; TcHisRS: 1.093%.
For Cc1nc(CNC(=O)NC2CCCN(c3ncccn3)C2)cs1 (centres unmarked) the result was CoaBC: 7.593%; Leishmania in macrophages: 25.07%; Pks13 thioesterase: 1.922%; ClpP1P2: -3.777%; TcHisRS: 11.06%.
For CCc1noc(CC)c1CNC(=O)Nc1cccc([S+](C)[O-])c1 (centres unmarked) the result was CoaBC: 1.21%; Leishmania in macrophages: 10.31%; Pks13 thioesterase: -14.03%; ClpP1P2: 2.275%; TcHisRS: 7.563%.
For COc1ccc(CN2CCCC3(CC2)CNC(=O)O3)cc1OC (centres unmarked) the result was CoaBC: -13.23%; Leishmania in macrophages: -10.8%; Pks13 thioesterase: 10.44%; ClpP1P2: -7.054%; TcHisRS: 1.478%.
For COCc1cn(C2CCN(C(=O)c3ccc(F)c(C)c3)CC2)nn1 the result was CoaBC: 3.661%; Leishmania in macrophages: 22.42%; Pks13 thioesterase: -25.59%; ClpP1P2: -2.993%; TcHisRS: 3.867%.
For CC(C)CCN1CCN(C(=O)c2cnccn2)CC1 the result was CoaBC: 4.592%; Leishmania in macrophages: 0.412%; Pks13 thioesterase: -16.02%; ClpP1P2: -2.208%; TcHisRS: 3.077%.
For CCc1cc(N2CCSCC2)n2nc(C)c(C)c2n1 the result was CoaBC: -9.375%; Leishmania in macrophages: 2.579%; Pks13 thioesterase: -3.198%; ClpP1P2: 7.915%; TcHisRS: 7.054%.
For Cc1cnc2n(c1=O)C(CC(=O)NCc1cc(-c3cccs3)on1)CS2 (centres unmarked) the result was CoaBC: 1.901%; Leishmania in macrophages: 1.489%; Pks13 thioesterase: -17.75%; ClpP1P2: 7.452%; TcHisRS: -2.174%.
For O=C(O)C(F)(F)F.[H][C@@]12COC[C@]1(COCC(=O)N1CCCC1)CN(C1CCC1)C2 the result was Leishmania in macrophages: 17.99%.
For c1ccc2c(c1)CCN(c1ncnc3sc4c(c13)CCNC4)C2 the result was CoaBC: -7.613%; Leishmania in macrophages: 27.09%; Pks13 thioesterase: -23.83%; ClpP1P2: -3.927%; TcHisRS: 13.09%.
For Cc1nc2c(c(NC(C)C)n1)CCN(Cc1cccnc1)CC2.O=C(O)C(F)(F)F.O=C(O)C(F)(F)F the result was Leishmania in macrophages: 0.2677% and -4.654%.

2 of the entries, repeated:

SMILES,CoaBC,Leishmania in macrophages,Pks13 thioesterase,ClpP1P2,TcHisRS
O=C(O)C(F)(F)F.[H][C@@]12CCN(CCc3ccccc3)C[C@]1([H])[C@H](C(=O)NC1CC1)CCO2,-,-3.454,-,-,-
Cc1cc(-c2nc(-c3cccc(CN4CCOCC4)c3)no2)no1,3.178,15.37,16.14,-1.259,1.093